Reference: the supplement of paper PMC10849652
The other results are listed elsewhere or left out.

The chains behind the UniProt entries cited, without tags or fusion partners. Where a name states a change or a piece, a line headed by the entry shows the natural chain unless it says otherwise.
UniProt Q96L58: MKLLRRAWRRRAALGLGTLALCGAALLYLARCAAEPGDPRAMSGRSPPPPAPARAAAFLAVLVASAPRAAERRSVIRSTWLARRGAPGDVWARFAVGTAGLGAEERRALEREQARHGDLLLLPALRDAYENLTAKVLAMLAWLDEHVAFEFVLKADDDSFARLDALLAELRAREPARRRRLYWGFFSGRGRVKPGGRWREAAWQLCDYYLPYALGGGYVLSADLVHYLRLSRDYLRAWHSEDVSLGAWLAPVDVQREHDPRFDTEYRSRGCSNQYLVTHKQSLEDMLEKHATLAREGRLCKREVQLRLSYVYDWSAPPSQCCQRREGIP
UniProt Q93050, whole entry, looked up: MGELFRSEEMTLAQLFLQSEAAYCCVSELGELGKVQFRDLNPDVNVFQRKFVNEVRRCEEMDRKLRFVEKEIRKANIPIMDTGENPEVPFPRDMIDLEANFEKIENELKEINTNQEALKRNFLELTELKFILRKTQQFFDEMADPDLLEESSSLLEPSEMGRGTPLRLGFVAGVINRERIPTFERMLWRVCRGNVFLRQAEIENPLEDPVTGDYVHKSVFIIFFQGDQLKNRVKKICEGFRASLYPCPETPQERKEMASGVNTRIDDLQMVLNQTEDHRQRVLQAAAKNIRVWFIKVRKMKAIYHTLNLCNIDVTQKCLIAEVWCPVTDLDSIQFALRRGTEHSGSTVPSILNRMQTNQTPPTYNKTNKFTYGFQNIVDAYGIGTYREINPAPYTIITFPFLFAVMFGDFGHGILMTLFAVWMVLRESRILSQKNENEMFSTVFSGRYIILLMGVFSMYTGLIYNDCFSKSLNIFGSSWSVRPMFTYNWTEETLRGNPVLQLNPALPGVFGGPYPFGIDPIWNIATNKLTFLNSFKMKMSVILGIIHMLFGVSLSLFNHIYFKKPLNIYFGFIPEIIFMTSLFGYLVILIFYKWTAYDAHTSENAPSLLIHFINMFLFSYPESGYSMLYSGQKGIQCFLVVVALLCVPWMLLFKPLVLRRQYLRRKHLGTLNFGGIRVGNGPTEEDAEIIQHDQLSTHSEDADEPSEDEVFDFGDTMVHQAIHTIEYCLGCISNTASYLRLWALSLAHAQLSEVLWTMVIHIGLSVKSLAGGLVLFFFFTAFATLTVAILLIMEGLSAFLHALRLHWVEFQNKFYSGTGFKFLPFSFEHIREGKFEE
UniProt P18846: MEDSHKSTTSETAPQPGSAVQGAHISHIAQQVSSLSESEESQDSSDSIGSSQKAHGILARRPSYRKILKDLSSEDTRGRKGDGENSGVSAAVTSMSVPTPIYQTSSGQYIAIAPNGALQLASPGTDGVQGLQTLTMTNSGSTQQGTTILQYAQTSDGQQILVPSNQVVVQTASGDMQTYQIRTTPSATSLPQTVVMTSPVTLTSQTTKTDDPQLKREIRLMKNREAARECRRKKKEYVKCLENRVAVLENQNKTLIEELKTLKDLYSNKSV
UniProt Q8IZT6: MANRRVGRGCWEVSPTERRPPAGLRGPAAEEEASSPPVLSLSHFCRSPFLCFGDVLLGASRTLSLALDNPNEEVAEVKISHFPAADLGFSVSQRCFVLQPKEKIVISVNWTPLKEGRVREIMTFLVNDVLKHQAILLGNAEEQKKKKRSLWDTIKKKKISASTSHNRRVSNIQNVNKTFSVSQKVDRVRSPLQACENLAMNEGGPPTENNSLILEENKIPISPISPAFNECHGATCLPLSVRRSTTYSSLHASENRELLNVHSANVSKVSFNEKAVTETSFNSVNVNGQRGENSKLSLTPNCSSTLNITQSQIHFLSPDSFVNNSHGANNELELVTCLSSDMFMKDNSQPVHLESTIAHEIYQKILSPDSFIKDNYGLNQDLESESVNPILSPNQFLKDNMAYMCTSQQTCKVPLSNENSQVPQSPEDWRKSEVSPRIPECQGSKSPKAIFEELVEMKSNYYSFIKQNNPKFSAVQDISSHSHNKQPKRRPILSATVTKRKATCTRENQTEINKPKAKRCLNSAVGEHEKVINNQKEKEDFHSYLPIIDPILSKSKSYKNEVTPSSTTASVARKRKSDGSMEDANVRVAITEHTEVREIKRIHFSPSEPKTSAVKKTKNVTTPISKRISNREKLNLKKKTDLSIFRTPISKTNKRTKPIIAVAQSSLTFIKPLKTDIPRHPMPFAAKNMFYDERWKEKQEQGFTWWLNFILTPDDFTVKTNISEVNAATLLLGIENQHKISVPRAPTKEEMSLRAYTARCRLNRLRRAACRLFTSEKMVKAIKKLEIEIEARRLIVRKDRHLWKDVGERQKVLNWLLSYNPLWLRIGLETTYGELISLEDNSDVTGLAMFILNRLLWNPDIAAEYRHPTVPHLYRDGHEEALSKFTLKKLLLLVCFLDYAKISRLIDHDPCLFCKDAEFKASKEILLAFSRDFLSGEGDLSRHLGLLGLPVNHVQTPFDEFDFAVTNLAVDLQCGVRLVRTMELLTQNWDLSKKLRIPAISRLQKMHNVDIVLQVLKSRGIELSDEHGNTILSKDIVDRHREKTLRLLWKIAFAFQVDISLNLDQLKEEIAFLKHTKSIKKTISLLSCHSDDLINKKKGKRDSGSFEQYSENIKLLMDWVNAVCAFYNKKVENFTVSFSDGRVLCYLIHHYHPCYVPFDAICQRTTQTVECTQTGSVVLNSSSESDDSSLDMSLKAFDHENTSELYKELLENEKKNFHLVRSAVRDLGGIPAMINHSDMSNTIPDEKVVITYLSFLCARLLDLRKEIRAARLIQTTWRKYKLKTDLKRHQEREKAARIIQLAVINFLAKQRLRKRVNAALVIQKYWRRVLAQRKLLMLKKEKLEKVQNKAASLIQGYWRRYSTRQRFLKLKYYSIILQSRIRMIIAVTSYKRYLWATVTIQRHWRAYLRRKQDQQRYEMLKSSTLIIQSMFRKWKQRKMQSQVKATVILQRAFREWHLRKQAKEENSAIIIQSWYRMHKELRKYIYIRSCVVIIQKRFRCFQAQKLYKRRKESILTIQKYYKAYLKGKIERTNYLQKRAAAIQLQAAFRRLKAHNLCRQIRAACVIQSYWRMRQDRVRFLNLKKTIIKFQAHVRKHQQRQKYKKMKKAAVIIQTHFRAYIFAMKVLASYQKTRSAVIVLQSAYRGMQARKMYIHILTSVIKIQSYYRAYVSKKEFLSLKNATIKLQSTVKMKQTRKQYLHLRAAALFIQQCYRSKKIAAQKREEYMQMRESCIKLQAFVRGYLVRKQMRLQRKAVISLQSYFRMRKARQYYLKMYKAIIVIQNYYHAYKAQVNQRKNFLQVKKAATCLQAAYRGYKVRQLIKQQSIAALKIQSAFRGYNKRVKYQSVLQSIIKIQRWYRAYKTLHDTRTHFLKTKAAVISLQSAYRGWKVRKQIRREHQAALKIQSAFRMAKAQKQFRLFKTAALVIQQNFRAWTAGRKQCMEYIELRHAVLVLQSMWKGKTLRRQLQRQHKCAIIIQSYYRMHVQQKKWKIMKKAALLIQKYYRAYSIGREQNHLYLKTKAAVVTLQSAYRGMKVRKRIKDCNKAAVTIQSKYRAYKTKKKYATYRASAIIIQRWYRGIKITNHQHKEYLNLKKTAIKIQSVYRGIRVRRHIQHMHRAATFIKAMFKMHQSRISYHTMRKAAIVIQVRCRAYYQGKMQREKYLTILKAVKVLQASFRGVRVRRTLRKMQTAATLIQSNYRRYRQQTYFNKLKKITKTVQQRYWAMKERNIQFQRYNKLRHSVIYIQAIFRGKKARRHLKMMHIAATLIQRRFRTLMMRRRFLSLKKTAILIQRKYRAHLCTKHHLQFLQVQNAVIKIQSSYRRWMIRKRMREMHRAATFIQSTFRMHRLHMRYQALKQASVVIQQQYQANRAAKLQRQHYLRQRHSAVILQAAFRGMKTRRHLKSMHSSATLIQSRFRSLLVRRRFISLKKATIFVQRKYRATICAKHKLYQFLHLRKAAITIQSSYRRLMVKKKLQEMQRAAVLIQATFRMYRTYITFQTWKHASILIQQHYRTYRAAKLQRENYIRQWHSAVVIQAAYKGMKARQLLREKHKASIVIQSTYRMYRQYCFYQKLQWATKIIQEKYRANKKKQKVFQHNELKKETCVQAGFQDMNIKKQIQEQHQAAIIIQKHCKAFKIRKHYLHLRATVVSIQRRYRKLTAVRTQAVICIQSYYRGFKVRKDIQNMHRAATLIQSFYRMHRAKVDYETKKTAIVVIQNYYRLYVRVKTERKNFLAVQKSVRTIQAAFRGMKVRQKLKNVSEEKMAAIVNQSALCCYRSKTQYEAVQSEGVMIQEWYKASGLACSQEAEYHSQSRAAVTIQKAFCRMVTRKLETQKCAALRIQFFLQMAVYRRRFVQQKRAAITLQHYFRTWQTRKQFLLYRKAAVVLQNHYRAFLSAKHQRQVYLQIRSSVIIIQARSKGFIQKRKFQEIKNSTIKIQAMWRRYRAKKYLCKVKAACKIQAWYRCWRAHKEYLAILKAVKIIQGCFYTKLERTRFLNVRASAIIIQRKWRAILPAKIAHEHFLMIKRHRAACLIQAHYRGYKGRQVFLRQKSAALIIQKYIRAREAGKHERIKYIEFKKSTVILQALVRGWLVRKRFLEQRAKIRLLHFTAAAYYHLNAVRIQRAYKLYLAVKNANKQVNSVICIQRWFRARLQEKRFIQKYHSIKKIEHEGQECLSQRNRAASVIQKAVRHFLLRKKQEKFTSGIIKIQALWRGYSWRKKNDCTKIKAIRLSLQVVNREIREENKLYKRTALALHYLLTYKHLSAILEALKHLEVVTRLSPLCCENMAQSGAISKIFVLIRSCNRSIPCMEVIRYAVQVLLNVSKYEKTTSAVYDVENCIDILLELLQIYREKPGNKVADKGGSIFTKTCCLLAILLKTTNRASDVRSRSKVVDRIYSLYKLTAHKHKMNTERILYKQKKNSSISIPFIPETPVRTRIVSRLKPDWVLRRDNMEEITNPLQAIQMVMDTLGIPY
UniProt Q6Y288: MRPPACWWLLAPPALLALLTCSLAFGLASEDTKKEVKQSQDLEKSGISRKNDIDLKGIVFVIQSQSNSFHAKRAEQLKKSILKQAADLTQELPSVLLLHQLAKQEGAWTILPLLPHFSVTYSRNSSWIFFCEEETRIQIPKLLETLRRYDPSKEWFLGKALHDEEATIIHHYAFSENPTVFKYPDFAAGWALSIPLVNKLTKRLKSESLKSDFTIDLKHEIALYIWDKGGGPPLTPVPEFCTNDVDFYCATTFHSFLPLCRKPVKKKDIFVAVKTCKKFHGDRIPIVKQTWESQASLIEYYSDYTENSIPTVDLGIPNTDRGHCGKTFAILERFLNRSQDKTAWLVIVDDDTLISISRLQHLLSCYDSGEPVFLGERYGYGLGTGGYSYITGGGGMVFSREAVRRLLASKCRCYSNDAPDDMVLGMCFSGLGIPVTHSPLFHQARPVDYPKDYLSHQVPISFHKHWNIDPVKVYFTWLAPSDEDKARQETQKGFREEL
UniProt Q00973: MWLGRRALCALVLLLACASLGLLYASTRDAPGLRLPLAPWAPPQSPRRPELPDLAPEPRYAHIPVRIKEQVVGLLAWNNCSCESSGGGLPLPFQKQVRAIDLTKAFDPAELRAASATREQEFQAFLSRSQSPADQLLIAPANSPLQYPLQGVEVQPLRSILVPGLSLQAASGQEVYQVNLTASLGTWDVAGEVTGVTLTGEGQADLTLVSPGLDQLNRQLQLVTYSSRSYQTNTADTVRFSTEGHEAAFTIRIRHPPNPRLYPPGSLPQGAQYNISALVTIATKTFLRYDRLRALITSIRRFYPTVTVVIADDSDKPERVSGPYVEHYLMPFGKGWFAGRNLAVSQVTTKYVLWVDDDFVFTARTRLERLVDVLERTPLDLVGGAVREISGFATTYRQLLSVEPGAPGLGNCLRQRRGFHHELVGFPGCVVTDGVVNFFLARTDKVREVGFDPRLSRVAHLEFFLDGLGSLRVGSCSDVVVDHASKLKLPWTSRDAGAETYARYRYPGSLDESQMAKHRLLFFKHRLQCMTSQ

Tests used:
Assay in all cases: log2 fold change, soluble protein after heating vs DMSO (PISA); higher = thermal stabilisation; K562 lysate, 10 uM; active = over 0.2 and 3.5 SD of the protein, either way, in both replicates (recomputed)
[1] = compound: C1=CC=C(C=C1)[C@H](COC2=CC3=C(C=C2)NC(=O)N3)NC(=O)C4=CC=CN(C4=O)CC5=CC(=C(C=C5)F)F
Procedure, shortened: (§1)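 K562 pellets were dounce-homogenised in PBS pH 7.4 with 1 mM MgCl2, and the crude extract at 1 mg/mL protein was treated with 10 μM compound for 30 min. Aliquots were heated for 3 min across 48°C-58°C, pooled, and brought to 0.5% NP-40 at 4°C; soluble protein was the supernatant after 21,000xg for 90 min. Soluble protein was quantified by TMTpro 16plex LC-MS/MS with channel sums equalised, and reported as log2 fold change in thermal stability against DMSO controls, with values from duplicates.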

[2] = compound: CC1=C(SC2=C1C(=N[C@H](C3=NN=C(N32)C)CC(=O)N)C4=CC=C(C=C4)Cl)C
Procedure, shortened: as §1

[3] = compound: Cc1sc2c(c1C)C(c1ccc(Cl)cc1)=N[C@@H](CC(=O)OC(C)(C)C)c1nnc(C)n1-2
Procedure, shortened: as §1

[4] = compound: c1ccc([C@@H]2C[C@H]2NC2CCNCC2)cc1
Procedure, shortened: as §1

[5] = compound: CC1=C2C(=CC=C1)N=C(N(C2=O)C3=CC=CC=C3C)CN4C=NC5=C(N=CN=C54)N
Procedure, shortened: as §1

Measured: log2 fold change

ATP1B1 (UniProt P05026)
inactive: [1] -0.003 | [2] 0.016 | [3] -0.008 | [4] -0.059

B3GALT6 (UniProt Q96L58)
inactive: [1] 0.055 | [2] 0.041 | [3] 0.269

ATP6V0A1 (UniProt Q93050)
inactive: [1] 0.068 | [2] -0.019 | [3] -0.167 | [4] -0.032

ATF1 (UniProt P18846)
inactive: [1] 0.091 | [2] -0.03 | [3] -0.083 | [4] -0.086

ASPM (UniProt Q8IZT6)
inactive: [5] 0.021 | [3] 0.026 | [4] 0.026

B3GLCT (UniProt Q6Y288)
inactive: [1] 0.029 | [2] -0.004 | [5] 0.036 | [3] -0.015 | [4] -0.008

B4GALNT1 (UniProt Q00973)
inactive: [5] 0.039 | [3] -0.02 | [4] 0.127

ATG4D (UniProt Q86TL0)
inactive: [1] -0.011 | [2] 0.057 | [3] 0.041
